Results: patent EP3967307B1, “PIM KINASE INHIBITORS TO AUGMENT THE EFFICACY OF ANTI-CD20 ANTIBODY-BASED THERAPIES FOR USE IN THE TREATMENT OF HEMATOLOGIC MALIGNANCIES” (dated 2026)

System: miR-222
Assay: miR-222 expression by qPCR after MYC inhibition
Details: DHL4 cells, 50µM, 24 hours, vs DMSO, qPCR 2^-ΔΔCT

CCc1ccc(C=C2SC(=S)NC2=O)cc1
miR-222 expression: markedly decreased levels of miR-222

The match of structure and compound is tentative.
